Data from paper PMC9377591.
These are yes or no findings as the source states them, for the method shown. In cells and extracts the contact can be indirect. Some binding calls cover weakened binding; strength is not graded here. Sequences can lack the tags named with a protein.

By UniProt entry, the sequences of proteins in these tests, tags left out. Where a name states a change or a piece, a line headed by the entry shows the natural chain unless it says otherwise.
UniProt Q9VY77: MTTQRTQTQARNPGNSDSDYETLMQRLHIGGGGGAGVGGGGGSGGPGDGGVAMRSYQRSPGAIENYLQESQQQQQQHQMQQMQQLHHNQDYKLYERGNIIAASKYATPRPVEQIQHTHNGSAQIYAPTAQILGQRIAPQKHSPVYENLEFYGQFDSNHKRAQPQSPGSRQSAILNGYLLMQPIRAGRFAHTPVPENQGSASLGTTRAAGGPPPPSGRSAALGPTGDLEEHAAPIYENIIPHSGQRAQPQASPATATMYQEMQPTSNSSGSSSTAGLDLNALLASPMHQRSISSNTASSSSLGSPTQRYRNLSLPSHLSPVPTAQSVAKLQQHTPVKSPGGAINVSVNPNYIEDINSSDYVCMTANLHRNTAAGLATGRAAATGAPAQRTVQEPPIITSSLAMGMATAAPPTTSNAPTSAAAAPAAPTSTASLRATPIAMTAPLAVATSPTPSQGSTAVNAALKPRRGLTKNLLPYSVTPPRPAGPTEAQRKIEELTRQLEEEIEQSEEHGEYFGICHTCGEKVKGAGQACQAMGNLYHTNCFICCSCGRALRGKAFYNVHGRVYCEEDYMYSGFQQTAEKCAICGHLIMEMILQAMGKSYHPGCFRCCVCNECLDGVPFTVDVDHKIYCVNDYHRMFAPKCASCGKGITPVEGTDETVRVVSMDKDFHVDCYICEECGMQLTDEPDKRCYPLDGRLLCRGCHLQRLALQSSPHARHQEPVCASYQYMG

Biological target: T1, V5-tagged Warts (Wts-V5-His) (Drosophila) (UniProt Q9VA38)
T1 sequence: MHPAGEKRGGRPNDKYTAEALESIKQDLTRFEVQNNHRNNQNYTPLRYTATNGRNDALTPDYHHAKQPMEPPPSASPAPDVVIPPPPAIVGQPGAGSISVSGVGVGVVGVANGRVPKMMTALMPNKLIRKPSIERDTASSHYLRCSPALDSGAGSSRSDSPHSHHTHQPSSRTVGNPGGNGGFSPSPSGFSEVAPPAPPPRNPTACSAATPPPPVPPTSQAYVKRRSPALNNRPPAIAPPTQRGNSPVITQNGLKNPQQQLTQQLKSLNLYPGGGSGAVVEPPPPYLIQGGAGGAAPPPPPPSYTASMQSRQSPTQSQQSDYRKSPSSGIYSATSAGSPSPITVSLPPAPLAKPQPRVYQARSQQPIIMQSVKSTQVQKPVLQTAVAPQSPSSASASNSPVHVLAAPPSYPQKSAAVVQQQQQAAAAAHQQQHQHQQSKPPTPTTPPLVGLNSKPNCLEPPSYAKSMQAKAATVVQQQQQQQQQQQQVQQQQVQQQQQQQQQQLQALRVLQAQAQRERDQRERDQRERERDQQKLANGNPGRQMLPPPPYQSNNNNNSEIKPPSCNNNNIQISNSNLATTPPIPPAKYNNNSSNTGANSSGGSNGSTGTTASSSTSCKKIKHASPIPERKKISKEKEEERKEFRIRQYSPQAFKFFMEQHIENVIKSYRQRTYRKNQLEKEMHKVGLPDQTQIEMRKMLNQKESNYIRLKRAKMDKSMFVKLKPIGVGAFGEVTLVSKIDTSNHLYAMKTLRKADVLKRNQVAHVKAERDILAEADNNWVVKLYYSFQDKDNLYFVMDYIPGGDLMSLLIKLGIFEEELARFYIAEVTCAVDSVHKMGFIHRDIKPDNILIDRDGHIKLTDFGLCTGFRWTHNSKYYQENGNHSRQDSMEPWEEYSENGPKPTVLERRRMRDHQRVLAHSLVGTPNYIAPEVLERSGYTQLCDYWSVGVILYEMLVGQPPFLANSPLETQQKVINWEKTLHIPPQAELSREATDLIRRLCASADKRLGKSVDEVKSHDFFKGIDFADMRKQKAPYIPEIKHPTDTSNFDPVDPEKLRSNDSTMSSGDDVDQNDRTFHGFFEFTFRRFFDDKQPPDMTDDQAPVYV
Assay: co-IP; FLAG-tagged Jub constructs co-expressed with a V5-tagged partner in Drosophila S2 cells; lysis and washes in RIPA buffer (140 mM NaCl, 10 mM Tris-HCl pH 8.0, 1 mM EDTA, 1.0% Triton X-100, 0.1% SDS, 0.1% sodium deoxycholate); precipitated with anti-V5 agarose beads, blotted with anti-FLAG; band intensity normalised to full length Jub

Row | binding | Substance
1 | binds | Jub-FL (full length Ajuba LIM protein Jub), FLAG-tagged (from UniProt Q9VY77 1-728)
2 | binds | Jub LIM only (506-718), FLAG-tagged (from UniProt Q9VY77 506-718) (domain or fragment)
